# Data as given in PubChem BioAssay AID743255 (National Center for Advancing Translational Sciences (NCATS), 2014).
# By UniProt entry, the sequences of proteins in these tests, tags left out. Where a name states a change or a piece, a line headed by the entry shows the natural chain unless it says otherwise.
# UniProt O94782: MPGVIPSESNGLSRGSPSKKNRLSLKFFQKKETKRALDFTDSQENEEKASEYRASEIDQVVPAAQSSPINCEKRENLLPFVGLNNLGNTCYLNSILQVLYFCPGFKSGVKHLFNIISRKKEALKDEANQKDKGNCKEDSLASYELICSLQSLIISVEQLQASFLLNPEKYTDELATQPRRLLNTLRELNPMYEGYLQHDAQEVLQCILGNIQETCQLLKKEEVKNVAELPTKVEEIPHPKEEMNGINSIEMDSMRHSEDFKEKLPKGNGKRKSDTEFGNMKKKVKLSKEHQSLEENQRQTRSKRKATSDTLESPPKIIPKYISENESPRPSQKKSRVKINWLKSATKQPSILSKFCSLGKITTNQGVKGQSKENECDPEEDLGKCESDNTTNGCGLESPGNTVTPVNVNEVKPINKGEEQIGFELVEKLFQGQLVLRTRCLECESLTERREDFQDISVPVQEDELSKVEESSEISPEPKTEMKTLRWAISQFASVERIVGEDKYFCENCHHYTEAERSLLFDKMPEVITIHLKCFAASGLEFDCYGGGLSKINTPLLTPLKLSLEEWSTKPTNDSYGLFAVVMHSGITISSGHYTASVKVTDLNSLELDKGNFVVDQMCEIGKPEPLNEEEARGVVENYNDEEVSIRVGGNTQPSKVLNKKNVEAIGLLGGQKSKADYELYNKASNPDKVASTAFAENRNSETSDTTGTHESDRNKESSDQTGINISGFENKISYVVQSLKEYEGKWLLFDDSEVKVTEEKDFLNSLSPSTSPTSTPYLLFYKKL
# Out of some 390,000 compounds screened, about 910 (0.23%) were called active. This list was built around the results that the source calls inconclusive (neither active nor inactive); the mix of calls is not that of the screen. The call rests on the fitted dose curve; in most records, active means well fitted inhibition curve with a large enough effect; inconclusive means small, poorly fitted or top-dose-only effect; inactive means no such curve, though single readings can be large or run the other way. Potencies beside an inconclusive call are fits to weak or partial responses and may not hold up.
# Target: Ubiquitin carboxyl-terminal hydrolase 1 (Homo sapiens) (UniProt O94782)
# Experiment: Inhibitors of USP1/UAF1: Primary Screen; further: nearly all actives have a fitted effect of over 60% in size
# Details: recombinant USP1/UAF1, Ub-Rhodamine cleavage fluorescence; activity change, negative = inhibition: at 57.1 µM (top of the series)
# Summary of the method: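 Step one: compound is pinned into 1nM USP1/UAF1 in HEPES pH 7.8 buffer with TCEP. Step two: 15 min room-temperature incubation. Step three: Ub-Rho (150nM final) starts cleavage, tracked by fluorescence over six one-minute reads.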
# On the % scale 0 is the no-effect control and ±100 the full control effect; potency means the concentration at half of the fitted maximal effect.
Compound,Potency,"activity change, negative = inhibition"
CC1=NN(c2ccccc2)C(=O)/C1=C/c1ccc(-c2ccc(C)c(C(=O)O)c2)o1,"inconclusive: 79.4 µM [inhibitor, partial curve, poor fit]",
O=C(NCc1ccccc1Br)c1cccc2c1C(=O)c1ccc(N3CCC(Cc4ccccc4)CC3)cc1S2(=O)=O,"inconclusive: 4.47 µM [inhibitor, partial curve, poor fit]",
Cc1ccccc1-c1cc2c(nn1)-c1ccccc1C2=O,active: 31.6 µM,
CCc1nc2sc3c(c2c(=S)[nH]1)CC(C)(C)OC3,"inconclusive: 316 µM [inhibitor, partial curve, poor fit]",
CC(C)OC(=O)c1ccc(N2CCN(c3ccc(F)cc3)CC2)nc1,inactive,
COc1ccc(-c2nnc(SCC(=O)NCCc3ccc(OC)c(OC)c3)nc2-c2ccc(OC)cc2)cc1,"inconclusive: 17.8 µM [inhibitor, partial curve, poor fit]",
COc1ccc2oc(C(=O)OCC(=O)N(Cc3ccccc3)C(C)(C)C)c(C)c2c1,"inconclusive: 28.2 µM [inhibitor, partial curve]",
Cc1ccc(C)c(N2CCN(S(=O)(=O)c3cc(-c4cc(C)no4)ccc3C)CC2)c1,"inconclusive: 3.16 µM [inhibitor, full curve]",
CCC1(c2ccccc2)NC(=O)N(CC(=O)Nc2cc(C(F)(F)F)ccc2N2CCCC2)C1=O (configuration not stated),"inconclusive: 10 µM [inhibitor, full curve]",
CCOC(=O)C1CCN(C(=O)CCc2nnc3ccc(NCc4ccco4)nn23)CC1,inactive,
CCN1CCc2c(sc(NC(=O)c3ccc(S(=O)(=O)N(C)c4ccccc4)cc3)c2C(=O)NC)C1,"inconclusive: 35.5 µM [inhibitor, partial curve, poor fit]",
CCC(=O)N1CCc2cc(Br)cc(S(=O)(=O)CCC(=O)NCc3ccccc3OC)c21,"inconclusive: 6.31 µM [inhibitor, single point]",
CCOCC(=O)Nc1cc(C(=O)Nc2cccc(C)c2C)ccc1Cl,"inconclusive: 0.631 µM [inhibitor, full curve, poor fit]",
O=C(O)/C(=C\c1ccccc1Cl)c1ccc(S(=O)(=O)N2CCCCC2)s1,inactive,
Nc1ccc(NC(=O)c2ccc(C(=O)Nc3ccc(N)cc3)cc2)cc1,"inconclusive: 35.5 µM [inhibitor, partial curve]",
CCOC(=O)c1[nH]c(C)c(CCC(=O)N2CCN(c3cccc(OC)c3)CC2)c1C,"inconclusive: 56.2 µM [inhibitor, single point]",
CN(Cc1nc2ccccc2c(=O)[nH]1)C(=O)c1ccccc1OCc1ccc(Cl)cc1,inactive,
C=CCSc1nnc2c(n1)[nH]c1c(C)cccc12,"inconclusive: 0.251 µM [inhibitor, full curve, poor fit]",
CCCNC(=O)c1c[nH]c2ccc(S(=O)(=O)N(C)c3ccc(OCC)cc3)cc2c1=O,inactive,
COc1cc(NC(=O)c2ccc(F)cc2)ccc1NC(=O)c1cc2ccccc2o1,inactive,
CCN(CC)C(=O)C1=C(C)N(Cc2ccc(OC)cc2)C(=O)C(CC(=O)NC(c2ccccc2)c2ccccc2)C1 (configuration not stated),"inconclusive: 0.251 µM [inhibitor, full curve, poor fit]",

Compound,Potency,"activity change, negative = inhibition"
CC(C)Cn1cc(NC(=O)N2CCN(c3cccc(Cl)c3)CC2)c2ccccc2c1=O,"inconclusive: 35.5 µM [inhibitor, partial curve]",
C/C(=N\NC(=O)c1[nH]c2c([N+](=O)[O-])cc(C)cc2c1-c1ccccc1)c1cccnc1,"inconclusive: 7.94 µM [inhibitor, full curve, poor fit]",
COc1cccc(-n2c(C)cc(/C=C3/C(=N)N4C(=NC3=O)SN=C4S(C)(=O)=O)c2C)c1,"inconclusive: 39.8 µM [inhibitor, partial curve, poor fit]",
COc1ccc(S(=O)(=O)N2CCC(C(=O)Nc3ccc(Oc4ccccc4)cc3)CC2)cc1,"inconclusive: 17.8 µM [inhibitor, partial curve]",
COc1ccc(OC(C)C(=O)Nc2ccccc2F)cc1 (configuration not stated),,inconclusive: -12.8% [inhibitor]
COCC(=O)NC1CCN(CC(=O)Nc2ccccc2[N+](=O)[O-])CC1,"inconclusive: 22.4 µM [inhibitor, partial curve, poor fit]",
O=C(O)c1cccc(C(=O)Nc2cccc(NC(=O)C3CCCO3)c2)c1 (configuration not stated),inactive,
COc1ccc(C2=NN(C(C#N)c3ccc(OC)c(OC)c3)C(c3ccccc3)C2)cc1 (configuration not stated),"inconclusive: 39.8 µM [inhibitor, partial curve, poor fit]",
O=C(Nc1nnc(S(=O)(=O)N2CCCc3ccccc32)s1)c1cccc(Cl)c1,"inconclusive: 44.7 µM [inhibitor, partial curve, poor fit]",
CC1CCCN(C(=O)CSc2c3c(nc4cc(Cl)ccc24)CCCC3)C1 (configuration not stated),inactive,
CCCSc1ncc(Cl)c(C(=O)Nc2ccc(S(=O)(=O)N(C)c3ccccc3)cc2)n1,"inconclusive: 44.7 µM [inhibitor, partial curve]",
COCC(=O)N(Cc1cc2cc(C)ccc2[nH]c1=O)c1ccc(C)c(C)c1,inactive,
CCS(=O)(=O)n1nc(-c2ccco2)nc1N,"inconclusive: 7.08 µM [inhibitor, partial curve, poor fit]",
O=C(c1ccccc1)N1CCN(CCc2ccncc2)CC1,"inconclusive: 8.91 µM [inhibitor, partial curve]",
Cn1cncc1C(=O)c1ccccc1,"inconclusive: 0.794 µM [inhibitor, full curve]",
CC1=NN(c2ccccc2)C(=O)C1C(=S)SC1CC(=O)NC1=O (configuration not stated),inactive,
COc1cccc(CNC(=O)c2ccc3c(c2)c(C)c(C)n3Cc2ccccc2)c1,"inconclusive: 6.31 µM [inhibitor, partial curve]",
COc1cc(Cl)c(C)cc1NC(=O)C1CCN(c2nc3ccccc3n3cccc23)CC1,"inconclusive: 0.398 µM [inhibitor, full curve]",
COc1cc(CNCCCO)ccc1OCC(=O)NC(C)(C)C,"inconclusive: 5.62 µM [inhibitor, partial curve]",
FC(F)(F)c1cccc(NCc2cn3cccnc3n2)c1,inactive,
CC(C)C(=O)COc1c2occc2cc2ccc(=O)oc12,"inconclusive: 35.5 µM [inhibitor, single point]",

# Some values from above.
# `COc1cc(CNCCCO)ccc1OCC(=O)NC(C)(C)C` | Potency: inconclusive: 5.62 µM [inhibitor, partial curve]
# `FC(F)(F)c1cccc(NCc2cn3cccnc3n2)c1` | Potency: inactive
# `O=C(Nc1nnc(S(=O)(=O)N2CCCc3ccccc32)s1)c1cccc(Cl)c1` | Potency: inconclusive: 44.7 µM [inhibitor, partial curve, poor fit]
# `COc1cc(Cl)c(C)cc1NC(=O)C1CCN(c2nc3ccccc3n3cccc23)CC1` | Potency: inconclusive: 0.398 µM [inhibitor, full curve]

# (further entries)

Compound,Potency,"activity change, negative = inhibition"
CCCCN1C(=O)C(O)(c2c[nH]c3ccccc23)c2cc(Br)ccc21 (configuration not stated),"inconclusive: 89.1 µM [inhibitor, partial curve, poor fit]",
Cn1c(NCCO)nc2c1c(=O)n(Cc1cccc(F)c1)c(=O)n2C,"inconclusive: 2.51 µM [inhibitor, full curve, poor fit]",
CCOc1ccc(CCNC(c2cccc(Cl)c2)c2nnc(-c3ccccc3)o2)cc1OCC (configuration not stated),"inconclusive: 5.01 µM [inhibitor, full curve]",
Cc1nn(C(=O)c2ccc(Br)cc2)c(C)c1S(=O)(=O)N1CCOCC1,inactive,
COc1cccc(N2CCN(C(=O)CCCCCn3c(=S)[nH]c4cc5c(cc4c3=O)OCO5)CC2)c1,"inconclusive: 0.251 µM [inhibitor, full curve, poor fit]",
COc1cc(CN2CCN(c3cccc(C)c3C)CC2)cc([N+](=O)[O-])c1O,"inconclusive: 8.91 µM [inhibitor, partial curve, poor fit]",
Fc1ccc(NC(=S)NNc2ncc(C(F)(F)F)cc2Cl)c(F)c1,"inconclusive: 7.08 µM [inhibitor, single point]",
O=C(COC(=O)c1cccnc1Cl)NC(=O)NC1CCCCC1,"inconclusive: 50.1 µM [inhibitor, partial curve, poor fit]",
COc1ccc(CN(C)C(=O)c2ccc(OCC(=O)Nc3cccc(C(F)(F)F)c3)c(OC)c2)c(OC)c1,inactive,
O=C(Nc1cc(S(=O)(=O)N2CCOCC2)ccc1N1CCCCC1)c1ccc(Cl)cc1,"inconclusive: 3.98 µM [inhibitor, full curve, poor fit]",
COC(=O)c1ccc(/C=C/C(=O)OCC(=O)NCc2cccs2)cc1,"inconclusive: 4.47 µM [inhibitor, full curve]",
Cc1ccc(/C=C/C(=O)CCC(=O)O)cc1,"inconclusive: 0.251 µM [inhibitor, full curve, poor fit]",
CCCCCc1ccc(OCCOCCn2c[n+](C)c3ccccc32)c(CCCCC)c1,"inconclusive: 39.8 µM [inhibitor, partial curve]",
COc1ccc(N2CCN(C(=O)c3cc(-c4cc(OC)ccc4OC)nc4ccccc34)CC2)cc1,"inconclusive: 15.8 µM [inhibitor, partial curve]",
CCOC(=O)CC12CN3CN(C1)CC(CC(=O)OCC)(C3)C2=O,"inconclusive: 50.1 µM [inhibitor, partial curve, poor fit]",
O=C(Nc1ccc2c(c1)OCO2)c1cc2ncc(Br)cn2n1,inactive,
Cc1cccc(C)c1OCCNC(=O)OCc1ccccc1,"inconclusive: 44.7 µM [inhibitor, partial curve]",
O=C(NCCn1cc(SCc2ccc(Cl)cc2)c2ccccc21)c1cccs1,"inconclusive: 126 µM [inhibitor, partial curve, poor fit]",
O=C(NS(=O)(=O)NC1CCCCC1)C1=C(N2CCCC2)COC1=O,"inconclusive: 56.2 µM [inhibitor, partial curve, poor fit]",
COc1ccc(C(=O)N2c3ccccc3C(C)(c3ccc(Cl)cc3)CC2(C)C)cc1 (configuration not stated),"inconclusive: 8.91 µM [inhibitor, partial curve, poor fit]",
